# Laboratory results taken from the supplement of paper PMC10973195.
# ± gives the standard deviation of the averaged measurements. Some of the results follow. These are raw signals, not scaled to a control.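 In this assay, LPS from bacteria induces microglia-mediated neuronal death in a neuron–microglia–astrocyte co-culture, a model of inflammatory neurodegeneration. Compounds were compared against same-plate DMSO vehicle wells, with the SYK inhibitor BAY61-3606 as reference neuroprotective control.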
# System: rat primary cerebellar neuron-glia coculture
# Assay: microglia count (IB4+) per image field (cells per field); higher = more microglia
# Settings: LPS 0 ng/mL; 1 µM; treatment time 3 days
row,SMILES,microglia count
1,CCOc1ccccc1N1CCN(Cc2cccc3ccccc23)CC1,169 ± 32
2,Cc1cccc([C@H](C)c2c[nH]cn2)c1C,189 ± 48
3,OC1(c2ccc(Cl)cc2)c2ccccc2C2=NCCN21 (configuration not stated),151 ± 24
4,Clc1ccc(OC[C@H]2CCN2)cn1,176 ± 92
5,O=[N+]([O-])/N=C1\NCCN1Cc1ccc(Cl)nc1,183 ± 53
6,C[N+]1(C)[C@@H]2C[C@@H](OC(=O)[C@H](CO)c3ccccc3)C[C@H]1[C@@H]1O[C@@H]12,173 ± 63
7,Clc1ccc2c(c1Cl)CNCC2,186 ± 24
8,C[C@]12CC[C@H](O)C[C@H]1CC[C@@H]1[C@@H]2CC[C@]2(C)[C@@H](C3=CC(=O)OC3)CC[C@]12O,170 ± 41
9,Cc1cccc(NC(=O)N[C@@H]2N=C(c3ccccc3)c3ccccc3N(C)C2=O)c1,183 ± 57
10,Cn1c(CCCC(=O)O)nc2cc(N(CCCl)CCCl)ccc21,191 ± 75
11,CN/C(=N\S(=O)(=O)c1ccc(Cl)cc1)N1CC(c2ccccc2)C(c2ccc(Cl)cc2)=N1 (configuration not stated),175 ± 59
12,NCCc1cc(I)c(Oc2ccc(O)c(I)c2)c(I)c1,148 ± 39
13,O=C(NC1CN2CCC1CC2)c1cc(Br)cc2nc[nH]c12 (configuration not stated),195 ± 70
14,O=C1NC(=O)N(c2cccc3ccccc23)C(=O)/C1=C\c1c[nH]c2ccccc12,193 ± 60
15,CN(C)C(=O)Oc1ccc2cc(Br)ccc2c1Br,150 ± 39
16,COc1ccc2c(c[n+](C)c3c4cc5c(cc4ccc23)OCO5)c1OC,195 ± 130
17,c1ccc(CCCN2CCN(CCOC(c3ccccc3)c3ccccc3)CC2)cc1,213 ± 49
18,C[C@@H]1CN([C@H]2CC[C@](C#N)(c3ccc(F)cc3)CC2)CC[C@]1(C(=O)O)c1ccccc1,166 ± 54
19,N#Cc1nn(-c2c(Cl)cc(C(F)(F)F)cc2Cl)c(N)c1[S+]([O-])C(F)(F)F (configuration not stated),161 ± 25
20,O=C(O[C@H]1C[N+]2(CCCOc3ccccc3)CCC1CC2)C(O)(c1cccs1)c1cccs1,159 ± 48
21,O=C1CCCC2[C@H]3CNC[C@H](C3)CN12 (some centres not stated),161 ± 31
22,C=CCN(CC=C)CCc1c[nH]c2ccc(OC)cc12,164 ± 30
23,C[N+]1(C)CCO[C@@](O)(c2ccc(-c3ccc([C@@]4(O)C[N+](C)(C)CCO4)cc3)cc2)C1,176 ± 63
24,CCNC(=O)C[C@@H]1N=C(c2ccc(Cl)cc2)c2cc(OC)ccc2-n2c(C)nnc21,116 ± 41
25,O=C(c1ccccc1)C(F)(F)F,167 ± 33
26,C=C(C)[C@H]1Cc2c(ccc3c2O[C@@H]2COc4cc(OC)c(OC)cc4[C@@H]2C3=O)O1,270 ± 97

# Same assay, conditions: LPS 100 ng/mL; 1 µM; treatment time 3 days
row,SMILES,microglia count
1,CCOc1ccccc1N1CCN(Cc2cccc3ccccc23)CC1,463 ± 82
2,Cc1cccc([C@H](C)c2c[nH]cn2)c1C,463 ± 78
3,OC1(c2ccc(Cl)cc2)c2ccccc2C2=NCCN21 (configuration not stated),441 ± 84
4,Clc1ccc(OC[C@H]2CCN2)cn1,438 ± 83
5,O=[N+]([O-])/N=C1\NCCN1Cc1ccc(Cl)nc1,438 ± 89
6,C[N+]1(C)[C@@H]2C[C@@H](OC(=O)[C@H](CO)c3ccccc3)C[C@H]1[C@@H]1O[C@@H]12,444 ± 92
7,Clc1ccc2c(c1Cl)CNCC2,451 ± 84
8,C[C@]12CC[C@H](O)C[C@H]1CC[C@@H]1[C@@H]2CC[C@]2(C)[C@@H](C3=CC(=O)OC3)CC[C@]12O,408 ± 78
9,Cc1cccc(NC(=O)N[C@@H]2N=C(c3ccccc3)c3ccccc3N(C)C2=O)c1,414 ± 61
10,Cn1c(CCCC(=O)O)nc2cc(N(CCCl)CCCl)ccc21,399 ± 76
11,CN/C(=N\S(=O)(=O)c1ccc(Cl)cc1)N1CC(c2ccccc2)C(c2ccc(Cl)cc2)=N1 (configuration not stated),430 ± 70
12,NCCc1cc(I)c(Oc2ccc(O)c(I)c2)c(I)c1,424 ± 79
13,O=C(NC1CN2CCC1CC2)c1cc(Br)cc2nc[nH]c12 (configuration not stated),422 ± 98
14,O=C1NC(=O)N(c2cccc3ccccc23)C(=O)/C1=C\c1c[nH]c2ccccc12,405 ± 99
15,CN(C)C(=O)Oc1ccc2cc(Br)ccc2c1Br,471 ± 120
16,COc1ccc2c(c[n+](C)c3c4cc5c(cc4ccc23)OCO5)c1OC,468 ± 160
17,c1ccc(CCCN2CCN(CCOC(c3ccccc3)c3ccccc3)CC2)cc1,401 ± 91
18,C[C@@H]1CN([C@H]2CC[C@](C#N)(c3ccc(F)cc3)CC2)CC[C@]1(C(=O)O)c1ccccc1,457 ± 99
19,N#Cc1nn(-c2c(Cl)cc(C(F)(F)F)cc2Cl)c(N)c1[S+]([O-])C(F)(F)F (configuration not stated),408 ± 100
20,O=C(O[C@H]1C[N+]2(CCCOc3ccccc3)CCC1CC2)C(O)(c1cccs1)c1cccs1,438 ± 85
21,O=C1CCCC2[C@H]3CNC[C@H](C3)CN12 (some centres not stated),479 ± 130
22,C=CCN(CC=C)CCc1c[nH]c2ccc(OC)cc12,464 ± 86
23,C[N+]1(C)CCO[C@@](O)(c2ccc(-c3ccc([C@@]4(O)C[N+](C)(C)CCO4)cc3)cc2)C1,429 ± 100
24,CCNC(=O)C[C@@H]1N=C(c2ccc(Cl)cc2)c2cc(OC)ccc2-n2c(C)nnc21,146 ± 120
25,O=C(c1ccccc1)C(F)(F)F,438 ± 71
26,C=C(C)[C@H]1Cc2c(ccc3c2O[C@@H]2COc4cc(OC)c(OC)cc4[C@@H]2C3=O)O1,292 ± 83
